In the supplement of paper PMC12823440, “Inhibitors supercharge kinase turnover through native proteolytic circuits” (Nature, 2025):
This is one part of the list. The calls rarely recur for the same compound in another form.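 Kinases were expressed as nanoluciferase fusions in K562 cells and luminescence was read every 4 h between 2 and 18 h as percent of control, DMSO set to 100% and a positive control to 0%. A time point counts as decreased when the signal drops significantly (2 sigma). The hit call is the authors' own, does not follow from the count of time points alone, and its rule is not shown.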

Sequences of proteins named here, by UniProt entry; tags and fusion partners are left off. A change or cut given only in a name is not applied to a line headed by its entry.
UniProt Q96KB5: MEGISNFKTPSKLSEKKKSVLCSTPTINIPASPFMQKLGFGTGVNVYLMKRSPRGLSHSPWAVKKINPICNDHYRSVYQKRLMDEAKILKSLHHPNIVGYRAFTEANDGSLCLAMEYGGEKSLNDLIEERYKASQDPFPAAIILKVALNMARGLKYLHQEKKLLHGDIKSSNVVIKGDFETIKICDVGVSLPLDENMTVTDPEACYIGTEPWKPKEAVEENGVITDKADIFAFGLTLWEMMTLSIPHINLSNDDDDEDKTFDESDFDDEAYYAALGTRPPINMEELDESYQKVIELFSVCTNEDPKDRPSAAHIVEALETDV
UniProt Q9UBF8: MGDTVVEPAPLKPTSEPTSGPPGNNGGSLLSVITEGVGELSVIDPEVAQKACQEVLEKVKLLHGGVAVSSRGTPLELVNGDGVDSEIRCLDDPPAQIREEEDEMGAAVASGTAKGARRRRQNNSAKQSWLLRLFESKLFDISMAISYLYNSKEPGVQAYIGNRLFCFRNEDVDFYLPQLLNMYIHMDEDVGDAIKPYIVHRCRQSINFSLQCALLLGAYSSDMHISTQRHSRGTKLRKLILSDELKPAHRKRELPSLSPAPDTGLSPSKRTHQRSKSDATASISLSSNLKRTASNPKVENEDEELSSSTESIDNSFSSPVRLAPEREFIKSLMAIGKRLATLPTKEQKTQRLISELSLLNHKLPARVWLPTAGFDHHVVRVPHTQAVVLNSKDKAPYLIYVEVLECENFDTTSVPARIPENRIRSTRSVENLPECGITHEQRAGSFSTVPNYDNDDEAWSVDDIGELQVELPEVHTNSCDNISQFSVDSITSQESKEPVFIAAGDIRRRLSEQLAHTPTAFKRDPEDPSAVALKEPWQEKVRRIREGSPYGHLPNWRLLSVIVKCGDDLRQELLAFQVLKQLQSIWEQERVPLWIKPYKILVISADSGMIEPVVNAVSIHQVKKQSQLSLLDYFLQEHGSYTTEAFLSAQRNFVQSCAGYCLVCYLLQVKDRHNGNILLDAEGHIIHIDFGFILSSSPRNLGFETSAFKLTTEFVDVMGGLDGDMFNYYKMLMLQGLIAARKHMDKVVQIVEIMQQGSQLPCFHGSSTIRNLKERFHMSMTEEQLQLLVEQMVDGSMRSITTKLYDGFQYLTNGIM
UniProt Q13131: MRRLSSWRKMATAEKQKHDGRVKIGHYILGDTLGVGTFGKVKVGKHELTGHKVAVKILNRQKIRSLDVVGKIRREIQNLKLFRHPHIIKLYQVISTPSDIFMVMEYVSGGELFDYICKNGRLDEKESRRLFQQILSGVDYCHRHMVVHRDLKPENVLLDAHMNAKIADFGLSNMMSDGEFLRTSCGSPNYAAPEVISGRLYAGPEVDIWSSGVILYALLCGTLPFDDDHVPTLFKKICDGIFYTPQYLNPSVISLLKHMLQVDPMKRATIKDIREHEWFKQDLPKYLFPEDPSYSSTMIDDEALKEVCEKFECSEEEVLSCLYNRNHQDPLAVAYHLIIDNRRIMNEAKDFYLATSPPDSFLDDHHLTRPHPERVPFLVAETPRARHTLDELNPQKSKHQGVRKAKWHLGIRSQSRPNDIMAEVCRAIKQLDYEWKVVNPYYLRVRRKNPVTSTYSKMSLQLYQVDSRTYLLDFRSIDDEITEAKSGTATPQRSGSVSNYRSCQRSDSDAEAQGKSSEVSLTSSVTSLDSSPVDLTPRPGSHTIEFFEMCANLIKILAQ
UniProt Q14289, whole entry, looked up: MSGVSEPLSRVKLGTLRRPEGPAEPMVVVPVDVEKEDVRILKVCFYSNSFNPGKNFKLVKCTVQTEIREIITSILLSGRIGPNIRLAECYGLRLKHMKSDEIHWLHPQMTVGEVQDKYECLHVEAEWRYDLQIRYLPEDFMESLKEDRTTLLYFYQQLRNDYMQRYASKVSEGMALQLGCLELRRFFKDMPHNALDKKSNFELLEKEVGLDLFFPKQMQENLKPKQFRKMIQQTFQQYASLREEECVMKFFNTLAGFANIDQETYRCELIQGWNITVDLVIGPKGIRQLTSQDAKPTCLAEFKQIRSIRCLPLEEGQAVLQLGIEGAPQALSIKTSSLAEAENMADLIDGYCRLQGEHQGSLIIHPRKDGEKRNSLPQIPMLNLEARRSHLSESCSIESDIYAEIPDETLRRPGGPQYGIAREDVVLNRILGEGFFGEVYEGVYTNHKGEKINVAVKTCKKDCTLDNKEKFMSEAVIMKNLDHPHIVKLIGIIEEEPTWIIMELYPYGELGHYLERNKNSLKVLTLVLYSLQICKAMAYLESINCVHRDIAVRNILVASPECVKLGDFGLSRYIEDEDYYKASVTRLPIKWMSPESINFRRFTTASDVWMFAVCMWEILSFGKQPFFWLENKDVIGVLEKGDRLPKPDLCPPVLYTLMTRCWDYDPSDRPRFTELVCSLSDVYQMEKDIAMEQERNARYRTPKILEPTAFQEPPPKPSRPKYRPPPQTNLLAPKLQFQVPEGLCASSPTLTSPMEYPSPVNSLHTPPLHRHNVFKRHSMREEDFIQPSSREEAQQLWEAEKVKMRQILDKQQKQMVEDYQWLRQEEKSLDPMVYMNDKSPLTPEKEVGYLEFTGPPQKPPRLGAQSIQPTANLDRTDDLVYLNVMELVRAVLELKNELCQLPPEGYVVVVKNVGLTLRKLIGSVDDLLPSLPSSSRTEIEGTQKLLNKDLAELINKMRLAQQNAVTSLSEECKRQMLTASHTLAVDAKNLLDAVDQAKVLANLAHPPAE
UniProt P07949, whole entry, looked up: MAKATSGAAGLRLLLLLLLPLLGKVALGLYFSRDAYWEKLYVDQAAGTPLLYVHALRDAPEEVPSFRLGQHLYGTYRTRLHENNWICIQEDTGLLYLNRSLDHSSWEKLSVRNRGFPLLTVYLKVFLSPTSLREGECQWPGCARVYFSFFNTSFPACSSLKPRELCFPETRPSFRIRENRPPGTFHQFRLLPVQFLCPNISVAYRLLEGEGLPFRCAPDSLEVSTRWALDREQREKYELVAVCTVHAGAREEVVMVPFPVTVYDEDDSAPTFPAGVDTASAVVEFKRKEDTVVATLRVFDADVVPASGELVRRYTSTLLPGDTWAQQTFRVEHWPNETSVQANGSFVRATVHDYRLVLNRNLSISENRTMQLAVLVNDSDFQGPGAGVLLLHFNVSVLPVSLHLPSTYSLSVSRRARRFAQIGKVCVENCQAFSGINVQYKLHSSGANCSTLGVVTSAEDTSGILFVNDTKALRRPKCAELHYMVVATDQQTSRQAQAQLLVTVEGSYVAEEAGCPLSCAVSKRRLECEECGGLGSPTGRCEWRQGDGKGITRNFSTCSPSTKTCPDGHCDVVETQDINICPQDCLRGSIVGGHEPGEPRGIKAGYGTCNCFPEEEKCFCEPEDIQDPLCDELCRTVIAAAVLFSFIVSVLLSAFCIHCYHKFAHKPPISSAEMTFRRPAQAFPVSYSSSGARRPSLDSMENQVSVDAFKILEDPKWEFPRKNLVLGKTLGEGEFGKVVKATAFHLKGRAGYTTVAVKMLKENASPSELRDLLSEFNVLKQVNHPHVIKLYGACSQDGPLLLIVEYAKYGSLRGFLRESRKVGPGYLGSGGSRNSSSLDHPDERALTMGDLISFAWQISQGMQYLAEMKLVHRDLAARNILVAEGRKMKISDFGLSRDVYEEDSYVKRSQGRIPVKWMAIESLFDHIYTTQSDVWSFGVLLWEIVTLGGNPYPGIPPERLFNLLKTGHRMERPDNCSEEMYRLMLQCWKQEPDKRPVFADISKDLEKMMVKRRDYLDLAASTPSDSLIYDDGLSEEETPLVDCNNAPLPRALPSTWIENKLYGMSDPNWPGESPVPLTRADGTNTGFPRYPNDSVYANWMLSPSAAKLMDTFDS
UniProt P07949, whole entry M918T, looked up: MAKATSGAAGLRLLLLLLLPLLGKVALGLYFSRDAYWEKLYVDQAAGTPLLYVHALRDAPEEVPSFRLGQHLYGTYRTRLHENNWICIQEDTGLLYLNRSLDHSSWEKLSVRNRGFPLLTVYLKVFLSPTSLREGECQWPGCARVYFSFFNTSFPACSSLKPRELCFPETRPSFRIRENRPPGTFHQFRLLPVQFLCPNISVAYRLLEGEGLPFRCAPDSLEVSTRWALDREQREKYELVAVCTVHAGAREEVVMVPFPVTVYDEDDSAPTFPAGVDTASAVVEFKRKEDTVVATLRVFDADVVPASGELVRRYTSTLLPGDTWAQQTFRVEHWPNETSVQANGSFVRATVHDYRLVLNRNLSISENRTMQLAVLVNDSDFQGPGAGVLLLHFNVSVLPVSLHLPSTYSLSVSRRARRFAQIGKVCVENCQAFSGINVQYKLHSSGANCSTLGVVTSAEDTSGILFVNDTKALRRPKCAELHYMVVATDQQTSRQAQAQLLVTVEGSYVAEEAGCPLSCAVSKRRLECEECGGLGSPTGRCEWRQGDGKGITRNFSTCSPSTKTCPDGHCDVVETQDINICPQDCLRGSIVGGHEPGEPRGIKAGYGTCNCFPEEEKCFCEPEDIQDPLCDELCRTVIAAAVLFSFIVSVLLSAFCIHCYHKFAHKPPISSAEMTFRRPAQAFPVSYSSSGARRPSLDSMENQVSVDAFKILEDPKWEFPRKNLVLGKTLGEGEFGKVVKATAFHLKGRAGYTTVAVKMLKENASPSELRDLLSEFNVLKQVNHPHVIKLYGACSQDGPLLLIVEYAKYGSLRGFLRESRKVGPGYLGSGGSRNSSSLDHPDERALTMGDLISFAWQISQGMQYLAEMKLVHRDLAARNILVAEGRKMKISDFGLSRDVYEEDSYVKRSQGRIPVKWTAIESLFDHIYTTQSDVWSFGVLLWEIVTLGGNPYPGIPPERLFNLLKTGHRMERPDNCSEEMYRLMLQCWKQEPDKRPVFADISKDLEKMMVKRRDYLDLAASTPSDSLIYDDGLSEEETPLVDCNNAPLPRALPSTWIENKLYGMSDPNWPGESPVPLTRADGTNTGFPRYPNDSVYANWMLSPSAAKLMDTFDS
UniProt Q9BRS2: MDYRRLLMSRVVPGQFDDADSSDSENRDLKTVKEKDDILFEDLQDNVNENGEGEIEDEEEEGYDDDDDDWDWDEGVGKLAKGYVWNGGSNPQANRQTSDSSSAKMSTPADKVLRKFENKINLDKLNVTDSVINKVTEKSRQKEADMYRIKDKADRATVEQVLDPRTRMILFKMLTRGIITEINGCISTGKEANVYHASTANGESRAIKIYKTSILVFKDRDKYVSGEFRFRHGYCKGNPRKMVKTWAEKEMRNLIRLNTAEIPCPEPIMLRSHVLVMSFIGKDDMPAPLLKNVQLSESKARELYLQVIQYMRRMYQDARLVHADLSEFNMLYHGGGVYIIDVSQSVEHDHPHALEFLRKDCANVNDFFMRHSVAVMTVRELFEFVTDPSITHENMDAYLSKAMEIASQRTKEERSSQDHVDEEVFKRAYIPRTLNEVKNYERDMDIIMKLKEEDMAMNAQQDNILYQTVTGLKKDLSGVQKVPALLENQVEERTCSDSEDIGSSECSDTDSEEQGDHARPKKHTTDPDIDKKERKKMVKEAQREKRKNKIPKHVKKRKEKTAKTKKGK
UniProt Q13546: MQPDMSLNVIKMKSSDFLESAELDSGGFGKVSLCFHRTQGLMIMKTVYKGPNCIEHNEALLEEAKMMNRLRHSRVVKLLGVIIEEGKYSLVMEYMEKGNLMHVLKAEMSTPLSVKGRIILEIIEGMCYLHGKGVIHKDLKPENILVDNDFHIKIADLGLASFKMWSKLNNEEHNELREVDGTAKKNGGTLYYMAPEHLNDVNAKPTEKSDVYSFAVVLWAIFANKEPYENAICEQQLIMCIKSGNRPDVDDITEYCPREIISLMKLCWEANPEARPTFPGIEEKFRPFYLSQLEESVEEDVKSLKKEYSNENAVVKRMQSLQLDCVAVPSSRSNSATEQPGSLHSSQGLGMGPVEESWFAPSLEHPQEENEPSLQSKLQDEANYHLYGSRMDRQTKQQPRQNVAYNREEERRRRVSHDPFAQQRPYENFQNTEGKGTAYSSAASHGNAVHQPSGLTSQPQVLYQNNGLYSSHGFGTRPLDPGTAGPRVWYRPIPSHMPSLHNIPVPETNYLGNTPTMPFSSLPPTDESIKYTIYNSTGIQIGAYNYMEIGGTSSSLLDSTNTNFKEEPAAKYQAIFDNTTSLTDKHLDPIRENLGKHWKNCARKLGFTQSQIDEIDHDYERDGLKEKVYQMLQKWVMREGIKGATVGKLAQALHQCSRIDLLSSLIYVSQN

Legend:
Experiment in all cases: number of time points (of 5) at which kinase-Nluc abundance scored as decreased, DMSO-normalised (count); higher = more persistent destabilization
Settings in all cases: K562; 2-18 h
NTRK3 = NTRK3 (UniProt Q16288)
PAK4 = PAK4 (UniProt O96013)
PBK = PBK (UniProt Q96KB5)
PDGFRB = PDGFRB (UniProt P09619)
PDK1 = PDK1 (UniProt Q15118)
PDPK1 = PDPK1 (UniProt O15530)
PIK4CA = PIK4CA (UniProt P42356)
PIK4CB = PIK4CB (UniProt Q9UBF8)
PLK1 = PLK1 (UniProt P53350)
PRKAA1 = PRKAA1 (UniProt Q13131)
PRKCA = PRKCA (UniProt P17252)
PTK2 = PTK2 (UniProt Q05397)
PTK2B = PTK2B (UniProt Q14289)
RAF1 = RAF1 (UniProt P04049)
[1] = biological target: RAF1_S257L (clone: RAF1_mut) (UniProt P04049)
RET = RET (UniProt P07949)
[2] = biological target: RET_M918T (clone: RET_mut) (UniProt P07949)
RIOK1 = RIOK1 (UniProt Q9BRS2)
RIPK1 = RIPK1 (UniProt Q13546)
RIPK2 = RIPK2 (UniProt O43353)

Measured: number of time points

C[C@@H]1CC[C@]2(C(=O)O)CC[C@]3(C)C(=CC[C@@H]4[C@@]5(C)CC[C@H](O)[C@@](C)(CO)[C@@H]5CC[C@]43C)[C@@H]2[C@]1(C)O [Rotundic acid] (10 µM)
0: all assays above

O=C1c2c(O)cc(O)cc2O[C@H](c2cc(O)c(O)c(O)c2)[C@H]1O [Dihydromyricetin] (10 µM)
0: all assays above

O=C(Nc1cc(Cl)cc(Cl)c1)Nc1cc(Cl)cc(Cl)c1 (10 µM)
3: PIK4CB
0: all other assays above

CC1=C(C(=O)Nc2ccc3[nH]ncc3c2)C(c2ccc(F)c(C(=O)NCc3ccccn3)c2)NC(=O)N1 (stereo not given) (10 µM)
0: all assays above

COc1ccc(F)cc1C(=O)NCc1ccc(-c2nn([C@@H](C)C(F)(F)F)c(N)c2C(N)=O)cc1 [Pirtobrutinib] (10 µM)
0: all assays above

COc1ncc2cc(C(=O)Nc3cc(C(=O)NCc4cccc(Cl)c4)ccc3Cl)c(=O)[nH]c2n1 (2.5 µM)
0: all assays above

CCn1c2ccccc2c2cc(Nc3ccnc(NCCCN4CCOCC4)n3)ccc21 (2.5 µM)
0: all assays above

O=C(c1ccc(NS(=O)(=O)c2cccc3cccnc23)cc1)N1CCN(CC2CC2)CC1 [Mitapivat] (10 µM)
0: all assays above

CN(c1ccc(C(F)(F)F)cc1)S(=O)(=O)c1ccc(C(=O)Nc2nc(-c3ccccn3)cs2)cc1 (2.5 µM)
2: PDGFRB
0: all other assays above

Clc1ccc(Nc2cccc(-c3cn[nH]c3)c2)cc1 (10 µM)
0: all assays above

O=C(Nc1ncc(SCCN2CCCC2)s1)[C@]1(c2ccc(S(=O)(=O)C3CC3)cc2)C[C@H]1C1CCCCC1 [Globalagliatin] (2.5 µM)
0: all assays above

C=CC(=O)N1CCC[C@@H](n2c(=O)n(-c3ccc(Oc4ccccc4)cc3)c3c(N)nccc32)C1 [Tolebrutinib] (10 µM)
0: all assays above

O=C(O)[C@]1(Cc2cccc(Nc3nccs3)n2)CC[C@@H](Oc2cccc(Cl)c2F)CC1 (2.5 µM)
1: PDPK1 | PIK4CB | PRKAA1 | RET | [2] | RIPK2
3: [1]
2: PDGFRB | PIK4CA | RAF1 | RIOK1
0: all other assays above

CN1CCC(c2ccccc2CC(C)(C)Nc2nc(N3CCOCC3)nc(-n3c(S(C)(=O)=O)nc4ccccc43)n2)CC1 (10 µM)
0: all assays above

C=C[C@H]1[C@H](O[C@@H]2O[C@H](CO)[C@@H](O)[C@H](O)[C@H]2O)OC=C(C(=O)OC)[C@H]1CCOC(=O)c1cc(O)c(O)c(O)c1 [Cornuside] (10 µM)
0: all assays above

O=S(=O)(N=Cc1c(O)ccc2ccccc12)c1cccs1 (10 µM)
0: all assays above

O=C(NCc1cccc(O)c1)c1cc2cc(F)ccc2[nH]1 (10 µM)
0: all assays above

CNS(=O)(=O)Nc1nccc(Cc2c(C)c3ccc(Oc4ncccn4)cc3oc2=O)c1F (10 µM)
1: PDGFRB | PDPK1 | PRKAA1 | PTK2 | RAF1 | RET | RIOK1 | RIPK1 | RIPK2
0: all other assays above

Nc1nc2c(ncn2COCCO)c(=O)[nH]1 [Acyclovir] (10 µM)
0: all assays above

CCCC[C@H](CO)Nc1nc(NC)ncc1OC [Interferon receptor inducer-1] (10 µM)
0: all assays above

Reprinted from the listing (2 entries):
C=CC(=O)N1CCC[C@@H](n2c(=O)n(-c3ccc(Oc4ccccc4)cc3)c3c(N)nccc32)C1 [Tolebrutinib] (10 µM)
0: all assays above

O=C(O)[C@]1(Cc2cccc(Nc3nccs3)n2)CC[C@@H](Oc2cccc(Cl)c2F)CC1 (2.5 µM)
1: PDPK1 | PIK4CB | PRKAA1 | RET | [2] | RIPK2
3: [1]
2: PDGFRB | PIK4CA | RAF1 | RIOK1
0: all other assays above

Remaining list, next part.

CNC(=O)Nc1cc(Oc2cncc(C)c2)c(-c2ccc(OCC(C)(C)O)nc2)cn1 (2.5 µM)
0: all assays above

CNC(=O)c1ccc(-c2cnc3ncc(Cc4ccc5ncccc5c4)n3n2)cc1F [Capmatinib] (10 µM)
0: all assays above

Cc1cc(F)c(Nc2ncnc3cc(OCc4ccccc4)ccc23)cc1O (10 µM)
0: all assays above

Nc1n[nH]c(N)c1N=Nc1ccc(O)cc1 (10 µM)
0: all assays above

CN1CCN(c2ccc(NC(=O)c3ccc(C#N)o3)c(N3CCCCC3)c2)CC1 (10 µM)
1: PTK2
0: all other assays above

COc1ccc(C2CC(c3ccc(Cl)cc3)=NN2c2nc(-c3ccncc3)cs2)cc1 (stereo not given) [mTOR inhibitor-8] (10 µM)
0: all assays above

CC(C)(C)S(=O)(=O)c1ccc2nccc(Nc3n[nH]c4ccc(F)cc34)c2c1 (10 µM)
0: all assays above

N#Cc1c[nH]c2ccc(-c3ccc(-c4c(O)cccc4O)cc3)cc12 (10 µM)
0: all assays above

COc1cccc2cc(-c3nc([C@H]4CC[C@H](C(=O)O)CC4)n4ncnc(N)c34)[nH]c12 (2.5 µM)
0: PAK4 | PBK | PDK1 | PRKCA | RET
1: PTK2B
3: PLK1 | RIPK1 | RIPK2
4: NTRK3 | PDGFRB | PDPK1 | PIK4CA | [2]
2: all other assays above

C=CC(=O)Nc1cccc(Oc2nc(Nc3ccc(N4CCN(C)CC4)cc3)ncc2Cl)c1 (2.5 µM)
0: all assays above

O=C(Nc1nccs1)C(c1cc(F)ccc1O)N1Cc2ccc(-c3ccc(N4CCNCC4)cc3)cc2C1=O (racemic) (10 µM)
2: [1]
0: all other assays above

CC(C)(C)NS(=O)(=O)c1cncc(-c2cc(F)c3nc(N)nn3c2)c1 (10 µM)
0: all assays above

CC(C)=C/C=C1\O[C@@H]2CC(C)=CC(=O)[C@@H]2[C@]1(C)O [Bisabolangelone] (10 µM)
0: all assays above

CNC(=O)c1nnc(NC(=O)C2CC2)cc1Nc1cccc(-c2ncn(C)n2)c1OC [Deucravacitinib] (10 µM)
0: all assays above

CC(C)=CCC/C(C)=C/CC/C(C)=C/CSc1ccccc1C(=O)O [Salirasib] (10 µM)
0: all assays above

CC[C@H](C)[C@H](NC(=O)[C@H](CCCCN)NC(=O)[C@H](CC(C)C)NC(=O)[C@@H]1CCCN1C(=O)[C@H](CCC(=O)O)NC(=O)[C@H](Cc1ccc(O)cc1)NC(=O)[C@@H](NC(=O)[C@H](CO)NC(=O)CNC(=O)[C@H](CO)NC(=O)[C@H](CCCN=C(N)N)NC(=O)[C@H](CCCCN)NC(=O)[C@@H](NC(=O)[C@@H](N)CCCN=C(N)N)[C@@H](C)O)C(C)C)C(=O)O [Malantide] (10 µM)
0: all assays above

CN(C)C(=O)c1cc2cnc(Nc3ccc(NC(=O)C4(C(=O)Nc5ccc(F)cc5)CC4)cc3)nc2n1C1CCCC1 (2 µM)
1: [1]
0: all other assays above

CC[C@H](C)[C@@H]1NC(=O)[C@@H]2CCCN2C(=O)[C@@H]2CCCN2C(=O)[C@@H]2CCCN2C(=O)[C@H](CC(C)C)NC(=O)CNC(=O)CNC(=O)[C@H](Cc2ccccc2)NC1=O [Heterophyllin B] (10 µM)
0: all assays above

CCn1c(-c2nonc2N)nc2c(C#CCO)ncc(OCCCN)c21 [AKT Kinase Inhibitor] (10 µM)
0: all assays above

CCS(=O)(=O)c1ccc(Oc2cc(O[C@@H](C)CO)cc(C(=O)Nc3ccn(C)n3)c2)cn1 (10 µM)
0: all assays above

Cn1c(=O)c(Oc2ccc(F)cc2F)cc2cnc(NC(CCO)CCO)nc21 [Pamapimod] (10 µM)
0: all assays above

CCOc1cc(C(=O)N2CCC(N3CCN(C)CC3)CC2)ccc1Nc1ncc2c(n1)N(S(C)(=O)=O)c1ccccc1C(=O)N2C (10 µM)
0: all assays above

C[C@@H]1O[C@@H](O[C@H]2[C@H](OC(=O)[C@]34CCC(C)(C)C[C@H]3C3=CC[C@@H]5[C@@]6(C)C[C@H](O)[C@H](O[C@@H]7O[C@H](CO)[C@@H](O)[C@H](O)[C@H]7O)C(CO)(CO)[C@@H]6CC[C@@]5(C)[C@]3(C)C[C@H]4O)OC[C@H](O)[C@@H]2O)[C@H](O)[C@H](O)[C@H]1O[C@@H]1OC[C@@H](O)[C@H](O[C@@H]2OC[C@](O)(CO)[C@H]2O)[C@H]1O [Platycodin D] (10 µM)
3: RIOK1
0: all other assays above

CC(C)(C)S(=O)(=O)c1cc2c(Nc3ccc4scnc4c3)ccnc2cc1OCCOCCOCCOCCOCC(=O)Nc1cccc2c1CN(C1CCC(=O)NC1=O)C2=O (stereo not given) [PROTAC RIPK degrader-6] (10 µM)
4: RIPK2
0: all other assays above

COc1cc2nccc(Oc3ccc(NC(=O)Nc4ccc(F)cc4F)c(F)c3)c2cc1OC (10 µM)
2: NTRK3
5: PTK2
0: all other assays above

O=C(N=c1sccn1Cc1ccccc1)c1c[nH]c2ncccc12 (10 µM)
0: all assays above
